From patent US20130011825A1, “METHODS AND SYSTEMS FOR REDUCING DNA FRAGMENTATION IN A PROCESSED SPERM SAMPLE” (INGURAN, LLC, priority 2010, published 2013)

Test system: sperm
Experiment: Flow cytometer sex sorting resolution with quenching dye
Design: species or system bull

O=S(=O)([O-])c1ccc(N=Nc2c(O)ccc3cc(S(=O)(=O)[O-])ccc23)cc1.[Na+].[Na+] [yellow 6 food dye]
resolution in flow cytometry for sperm sorting (as quenching dye with Hoechst 33342): improves the resolution | quenching dye concentration to which it can be increased while maintaining good resolution (sperm stained with Hoechst 33342, flow cytometer): at least 400%
